# These are yes or no findings as the source states them, for the method shown. Some binding calls cover weakened binding; strength is not graded here.
# Sequences of proteins named here, by UniProt entry; tags and fusion partners are left off. Residues count along the entry.
# UniProt P20333, residues 23-257: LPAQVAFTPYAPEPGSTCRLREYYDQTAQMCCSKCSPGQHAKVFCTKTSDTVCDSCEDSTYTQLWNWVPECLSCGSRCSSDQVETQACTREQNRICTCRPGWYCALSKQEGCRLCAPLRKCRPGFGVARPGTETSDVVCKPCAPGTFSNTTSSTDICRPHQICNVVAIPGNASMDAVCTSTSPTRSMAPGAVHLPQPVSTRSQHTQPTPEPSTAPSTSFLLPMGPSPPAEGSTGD
# Target: T1, Lymphotoxin-alpha (human) (UniProt P01374)
# T1 sequence (looked up): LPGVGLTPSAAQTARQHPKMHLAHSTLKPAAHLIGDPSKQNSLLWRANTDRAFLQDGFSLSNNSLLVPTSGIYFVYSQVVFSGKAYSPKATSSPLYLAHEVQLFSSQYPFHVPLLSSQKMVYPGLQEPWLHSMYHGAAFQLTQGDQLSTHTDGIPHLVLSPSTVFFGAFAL
# Assay: protein microarray, immobilized Fc fusion capturing fluorescently labeled plasma proteins
substance,measurement,value
Fc-Tumor necrosis factor receptor superfamily member 1B-fusion protein (from UniProt P20333 23-257) (Fc fusion),binding,binds
